Measured values: paper PMC9066768
Results are given in words; binding and its absence hold for the method and conditions named. In cells and extracts the contact can be indirect. Some binding calls cover weakened binding; strength is not graded here. Where a sequence is shown, tags or fusion partners need not be part of it.

Molecular target: T1, Flag-RND1 (Rho family GTPase 1) (human) (UniProt Q92730)
T1 sequence: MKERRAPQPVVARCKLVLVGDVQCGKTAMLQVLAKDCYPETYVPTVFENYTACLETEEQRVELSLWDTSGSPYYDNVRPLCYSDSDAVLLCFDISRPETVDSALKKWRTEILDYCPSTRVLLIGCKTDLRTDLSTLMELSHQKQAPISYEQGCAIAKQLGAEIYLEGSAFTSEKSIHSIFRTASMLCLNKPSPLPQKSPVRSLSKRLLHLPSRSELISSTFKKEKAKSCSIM
Assay: co-IP; 293T cells co-transfected with Flag-RND1 and HA-p53 for 48 h; lysed in IP buffer (50 mM Tris-Cl pH 8.0, 0.5 mM EDTA, 150 mM NaCl, 1% NP-40); IP with anti-Flag, anti-HA or IgG and Protein G Agarose overnight at 4 °C; blotted with anti-RND1 and anti-p53

binding: binds
Substance: HA-p53 (from UniProt P04637 1-393)
